In paper PMC10691236 (Proceedings of the National Academy of Sciences of the …, 2023):
Some compounds share one wording; it may come from a single statement.

Tested on: ADP-detection enzymes
Test: ADP-Glo counter screen (CDK2 replaced with 10 µM ADP)
Type: biochemical
Conditions: CDK2/cyclin E1 replaced with 10 µM ADP

## Cc1cc(O)c(C)c(O)c1C(=O)Oc1cc(C)c(C(=O)O)c(O)c1C [compound 6, 4-o-demethyl barbatic acid]
  increase in luminescence signal relative to the DMSO control: 2 fold
  inhibition of ADP detection in ADP-Glo control reactions: do not inhibit the ADP-detection assay

## Cc1cc(O)c(C)c2c1Oc1c(C)c(O)cc(C)c1C(=O)O2 [compound 8, 3,8-dihydroxy-1,4,6,9-tetramethyl-dibenzo[b,e][1,4]dioxepin-11-one]
  inhibition of ADP detection in ADP-Glo control reactions: do not inhibit the ADP-detection assay

## Cc1cc(O)c(C)c2c1C(=O)Oc1c(C)c(O)c(O)c(C)c1O2 [compound 10, roseopurpurin G]
  inhibition of ADP detection in ADP-Glo control reactions: do not inhibit the ADP-detection assay

## CO[C@@]1(C)[C@H](O)C(O)=C(C)C(=O)[C@@H]1Oc1cc(C)cc(O)c1C [compound 11, aculeatusquinone C]
  inhibition of ADP detection in ADP-Glo control reactions: do not inhibit the ADP-detection assay
